Patent EP0415456A2, “Xanthine compounds” (priority 1989, dated 1991)
Some of these results come from one statement about several compounds together.

Tested on: male dd-strain mice
Test: acute toxicity test
Type: in vivo
Conditions: 300 mg/kg orally administered, observed 7 days after administration
Description: […]. The Minimum lethal dose (MLD) of the compounds was determined by observing whether or not the mice were alive after 7 days of the administration.

8-[(1R*,2R*,5S*)-Bicyclo[2.2.1]heptan-2-yl]methyl-1,3-dipropylxanthine [Compound 16]
Minimum lethal dose (MLD): more than 300 mg/kg
